Our source for the binding values is PMC6127284.

No constants are given. Whether binding was seen depends on the method and setting. Binding can be weak; no strength is given.

In this assay the target is T1, DISC1 amino acids 361–385 peptide (array) (human) (UniProt Q9NRI5).
T1 sequence (peptide): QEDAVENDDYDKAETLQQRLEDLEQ
As to the kind of experiment: peptide or protein array; human DISC1 peptide array and alanine scanning peptide array of DISC1 amino acids 361-385, probed with FLAG-C0-C1-C2 (cytoplasmic tail of GluN1 fused to FLAG).

On to “cytoplasmic tail of GluN1 fused to FLAG (domain or fragment)”, for which the binding entry was “binds”.
